From publication PMC9029106
Results are given in words; binding and its absence hold for the method and conditions named. Binding seen in cells or lysates may run through a third protein.

Chains of the proteins cited; added tags and fusions are not shown. Lines headed by an entry give the natural chain unless they say otherwise; changes in a name come on top.
UniProt Q9Y252: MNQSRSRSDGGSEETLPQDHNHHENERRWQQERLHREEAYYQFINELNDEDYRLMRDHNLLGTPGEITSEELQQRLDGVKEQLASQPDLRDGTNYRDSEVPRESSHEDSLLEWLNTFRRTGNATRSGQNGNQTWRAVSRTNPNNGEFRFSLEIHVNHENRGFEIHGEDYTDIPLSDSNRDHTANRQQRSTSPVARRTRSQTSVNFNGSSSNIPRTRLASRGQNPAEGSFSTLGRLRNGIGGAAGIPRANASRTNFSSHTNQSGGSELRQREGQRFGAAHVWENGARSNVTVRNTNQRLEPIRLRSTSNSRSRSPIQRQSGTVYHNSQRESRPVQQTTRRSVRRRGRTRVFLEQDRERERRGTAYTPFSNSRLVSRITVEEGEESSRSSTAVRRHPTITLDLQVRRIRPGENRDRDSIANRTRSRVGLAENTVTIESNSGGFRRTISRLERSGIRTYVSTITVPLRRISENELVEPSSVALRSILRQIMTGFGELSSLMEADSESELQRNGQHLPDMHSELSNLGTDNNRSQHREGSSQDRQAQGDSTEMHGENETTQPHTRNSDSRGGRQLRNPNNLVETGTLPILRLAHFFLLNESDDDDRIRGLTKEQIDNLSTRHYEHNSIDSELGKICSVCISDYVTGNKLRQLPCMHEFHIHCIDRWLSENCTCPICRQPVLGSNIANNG
UniProt P46527: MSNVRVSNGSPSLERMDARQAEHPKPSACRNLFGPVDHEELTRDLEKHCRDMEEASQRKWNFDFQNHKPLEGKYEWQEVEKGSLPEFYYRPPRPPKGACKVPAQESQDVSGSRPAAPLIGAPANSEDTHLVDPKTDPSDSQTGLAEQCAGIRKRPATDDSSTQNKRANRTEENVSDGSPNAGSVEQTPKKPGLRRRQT

Biological target: HA-tagged RNF6 KIL domain mutant (human) (UniProt Q9Y252)
Test: co-IP; HA-tagged WT RNF6 and mutants cotransfected with p27 in HEK293 cells; MG132 (10 µM) for 6 h; blotted for HA and p27; the precipitating antibody is not told

binding: no binding
Substance: WT p27 (from UniProt P46527 1-198)
